Experimental data: patent US10292390B2, “Inhibition and dispersion of bacterial biofilms with 2-aminobenzimidazole derivatives” (WISCONSIN ALUMNI RESEARCH FOUNDATION, priority 2011, dated 2019)
Some entries share one result that the patent states for a list of compounds.

Test system: P. aeruginosa growth
Assay: bacterial growth over time (OD600)
Type: cell-based, Pseudomonas aeruginosa
Settings: below 1000 μM
Protocol: The effects of compounds 7 and 21 on P. aeruginosa growth were evaluated by monitoring the OD600 as a function of time. Microtiter plates were prepared similar to biofilm dose-response analyses such that final well concentrations upon inoculum addition ranged from 10^x μM where x=3.5, 3, 2.5, 2, 1.5, 1, 0, −1, or −2. Compounds 7 and 21 were tested in replicates of 3 wells, and the OD600 was measured every 1-2 h for 24 h.

| Structure (SMILES) | growth inhibition versus positive control (OD600 over 24 h) | growth inhibition versus positive control (after 12 h) |
| --- | --- | --- |
| Nc1nc2ccccc2[nH]1 [Compound 7, 2-aminobenzimidazole] | less than 20% | – |
| Cc1cc2nc(N)[nH]c2cc1C [Compound 21, 5,6-Dimethyl-2-aminobenzimidazole] | – | less than 20% |
